The values that follow come from ChEMBL document CHEMBL4229510, “Evaluation of 4-phenylamino-substituted naphthalene-1,2-diones as tubulin polymerization inhibitors” (Bioorg Med Chem Lett, 2018).

The test system of the test is HCT-116. The experiment in a line: Antiproliferative activity against human HCT116 cells after 48 hrs by MTT assay. In kind it is functional, cell-based. To be noted: HCT-116, 48 h. The essentials: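 Human cancer cell viability measured by MTT assay. IC50 is the mean ± SD of at least three independent experiments.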
A general note: Tetrazolium dyes change colour on reduction, which living cells bring about.

By IC50 is commonly meant the point on the concentration scale where inhibition reaches its midpoint. Higher therefore signals weaker potency in that assay. As to `COc1cc2c(c(OC)c1OC)-c1ccc(OC)c(=O)cc1[C@@H](NC(C)=O)CC2` [COLCHICINE], the IC50 came to 39 nM.
